Test: Dissolved oxygen release by catalytic medium
Details: FIG. 3C; 10 mg catalyst in citrate-buffered water pH 3.8 with 0.35% v/v hydrogen peroxide

| Compound | production of oxygen in the reaction medium |
| --- | --- |
| O=S(=O)([O-])[O-].[Cu+2] [CuSO4] | catalysed the production of oxygen |
| O=S(=O)([O-])[O-].[Fe+2] [FeSO4] | catalysed the production of oxygen |
